Measured values published in PubChem BioAssay AID2685 (National Center for Advancing Translational Sciences (NCATS), 2010).
This is one part of the list. The main result of the screen is listed elsewhere. These columns were measured beside it and carry no call. The list favours compounds with an active or inconclusive main result. The note in brackets gives the kind of curve behind each potency; many fits are weak.

Experiment: qHTS Assay for Lipid Storage Modulators in Drosophila S3 Cells;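 for cell number change: cells counted by Cell Tracker Red CMTPX staining in the red channel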
Conditions: BODIPY lipid droplet fluorescence, 18-24 h; for cell number change: measured here: cell count max response, cells fed with added oleic acid
In short: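 Drosophila S3 cells got compounds at several concentrations plus oleic acid (400 uM solution). Laser-scanning cytometry with 488 nm excitation read lipid droplets at 500-530 nm and cells at 575-640 nm. Percent activity was relative to 20 uM Triacsin C.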

[1] = measured here: cell number channel AC50, cells fed with added oleic acid
[2] = measured here: lipid fluorescence (Fed channel) AC50, cells fed with added oleic acid

SMILES | cell number change [%] | AC50 [1] | AC50 [2]
CC(=O)Nc1ccc(NC(=O)CSc2ccc(-c3ccc(-n4ccnc4)cc3)nn2)cc1 | -47.1 | 29.1 µM [falling, single point] | 
O=C(CNC(=S)N(Cc1ccccc1F)C1CCCCC1)NCC1CCCO1 (stereo not given) | -6.07 | 0.13 µM [falling, full curve, poor fit] | 0.651 µM [falling, single point]
CC(C(=O)NCCN1C(=O)S/C(=C\c2cccs2)C1=O)N1C(=O)c2ccccc2C1=O (stereo not given) | -13.8 |  | 10.3 µM [falling, partial curve, poor fit]
COC(=O)c1nnn(-c2nonc2N)c1CSc1nc2ccccc2s1 | -3.44 |  | 
CC(C)Oc1ccc(C2CC(=O)N(C)C2=O)cc1 (stereo not given) | 14.2 |  | 0.164 µM [rising, full curve, poor fit]
COc1ccc(OCc2cc(C(=O)N3CCCCCC3)no2)c(Cl)c1 | 20.2 |  | 
COc1ccc(C=O)cc1COc1c(F)c(F)cc(F)c1F | -38.9 | 0.731 µM [falling, full curve] | 1.84 µM [falling, partial curve]
CCCCOC(=O)CCn1c(=S)oc2ccccc21 | -41.5 | 29.1 µM [falling, single point] | 0.206 µM [falling, full curve, poor fit]
CSc1ccccc1NC(=O)CN(C)CC(=O)Nc1cccc(Br)c1 |  | 6.51 µM [rising, single point] | 3.66 µM [rising, single point]
CCCCn1c(SCC(=O)Nc2ccc3c(c2)CCC3)nc2ccccc2c1=O | 14.6 | 4.11 µM [rising, single point] | 5.8 µM [rising, single point]
COc1ccc(-c2nn(-c3ccccc3C)cc2CNCc2cccnc2)cc1F | 8.65 |  | 23.1 µM [rising, partial curve]
O=[N+]([O-])c1cccc(NNS(=O)(=O)c2ccccc2F)c1 | -14.5 |  | 
O=C(C1CCCO1)N1CCN(S(=O)(=O)c2cccc3nsnc23)CC1 (stereo not given) | 1.62 |  | 
C[C@@H]1C=CC(=O)O[C@@H]1c1ccc(Cl)cc1 | 7.19 |  | 
c1ccc(Cn2nnc3c(Nc4ccc5c(c4)OCO5)nc(C4CC4)nc32)cc1 | -27.2 |  | 0.082 µM [rising, full curve, poor fit]
S=c1[nH]c2cc(-c3ccccc3)ccc2o1 |  | 0.0326 µM [falling, full curve, poor fit] | 0.0058 µM [falling, full curve, poor fit]
O=C(CSc1nccc(=O)[nH]1)N1c2ccccc2CCc2ccccc21 | 7.1 |  | 2.06 µM [falling, full curve, poor fit]
COc1ccccc1NC(=S)N(CCCN(C)C)Cc1cc2cc3c(cc2[nH]c1=O)OCO3 | -2.6 |  | 0.103 µM [falling, partial curve, poor fit]
COc1cc(CNn2nnnc2N)cc(Br)c1OCC(=O)NC(C)(C)C | 22.7 |  | 23.1 µM [rising, partial curve]

SMILES | cell number change [%] | AC50 [1] | AC50 [2]
COc1ccc(C=C(c2nc3ccccc3s2)c2nc3ccccc3s2)cc1O | 150 | 20.6 µM [rising, single point] | 
O=C(c1ccc(N2CCCS2(=O)=O)cc1)N1CCN(c2ccccc2)CC1 | -3.17 |  | 18.4 µM [falling, partial curve]
COc1ccccc1-c1nc(SCC(=O)NCc2ccco2)c2c(=O)n(C)c(=O)n(C)c2n1 | 15 |  | 1.64 µM [falling, partial curve]
COc1cccc(/C=N/N2C(=O)C3C4c5ccccc5C(c5ccccc54)C3C2=O)c1OC (stereo not given) | 32.3 | 29.1 µM [rising, single point] | 5.17 µM [rising, partial curve]
O=C(CSc1ncn[nH]1)c1ccc2c(c1)OCO2 |  | 6.51 µM [rising, single point] | 6.51 µM [rising, single point]
O=C1OCC2=C1C(c1ccc(F)cc1)CC(=O)N2c1ccccc1 (stereo not given) | -20.1 |  | 
O=C(Nc1ccc(O)c(-c2nc3ccccc3s2)c1)C1=COCCO1 | -10.8 | 6.51 µM [rising, single point] | 
Cc1ccc(CNC(=O)c2ccc(N3CCC4(CC3)CC(c3ccccc3)=NO4)c(NC(=O)c3ccc(Br)cc3)c2)cc1 | 32.3 | 8.2 µM [rising, full curve, poor fit] | 
COC(=O)c1ccc2nc(Nc3nc4ccc(F)cc4s3)sc2c1 | -34.6 | 29.1 µM [falling, single point] | 29.1 µM [falling, single point]
CCn1c(Cc2cccn2C)nnc1SCC(=O)c1ccc(C)cc1 | -21.5 |  | 14.6 µM [falling, partial curve, poor fit]
Cc1ccnc(N2CCCC(C(=O)Nc3ccc(C)c(C)c3)C2)n1 (stereo not given) | -17.9 |  | 
Cc1ccc(S(=O)(=O)N2CCN(C(=O)COC(=O)c3ccc(Cl)nc3)CC2)c(C)c1 | 0.735 |  | 1.84 µM [rising, full curve]
CC(C)Cn1nc(NC(=O)c2ccco2)c2cc3ccccc3nc21 | 17.2 | 0.00651 µM [rising, full curve, poor fit] | 2.06 µM [rising, partial curve]
CC(C)c1ccc(NC(=O)C(c2ccccc2)N2CC(=O)Nc3ccccc32)cc1 (stereo not given) | -0.107 |  | 
COc1ccc(NC(=O)c2ccc(OC(F)F)cc2)cc1Cl | 31.3 | 10.3 µM [rising, single point] | 14.6 µM [rising, partial curve]
CCc1cccc(C)c1NC(=O)CSc1nc2ccccc2n1CC(=O)N(C)C | 31.1 | 23.1 µM [rising, single point] | 10.3 µM [rising, single point]
Cn1c(CCC(=O)OCC(=O)NCc2ccc3c(c2)OCO3)nc(=O)c2ccccc21 | 13.5 |  | 3.26 µM [rising, full curve]
COc1cccc(-c2c[nH]c(=O)[nH]c2=O)c1 | 17.6 |  | 16.4 µM [rising, partial curve, poor fit]

Part of the list above in a different format.

| SMILES | cell number change [%] | AC50 [1] | AC50 [2] |
| --- | --- | --- | --- |
| COc1ccc(OCc2cc(C(=O)N3CCCCCC3)no2)c(Cl)c1 | 20.2 |  |  |
| CCCCn1c(SCC(=O)Nc2ccc3c(c2)CCC3)nc2ccccc2c1=O | 14.6 | 4.11 µM [rising, single point] | 5.8 µM [rising, single point] |
| CC(C)Cn1nc(NC(=O)c2ccco2)c2cc3ccccc3nc21 | 17.2 | 0.00651 µM [rising, full curve, poor fit] | 2.06 µM [rising, partial curve] |
